Test results published in the supplement of paper PMC10849652.
This is one part of the list.

Protein sequences, listed by entry. Tags and fused reporters are not part of them. Lines headed by an entry give the natural chain unless they say otherwise; changes in a name come on top.
UniProt Q8WVM8, whole entry, looked up: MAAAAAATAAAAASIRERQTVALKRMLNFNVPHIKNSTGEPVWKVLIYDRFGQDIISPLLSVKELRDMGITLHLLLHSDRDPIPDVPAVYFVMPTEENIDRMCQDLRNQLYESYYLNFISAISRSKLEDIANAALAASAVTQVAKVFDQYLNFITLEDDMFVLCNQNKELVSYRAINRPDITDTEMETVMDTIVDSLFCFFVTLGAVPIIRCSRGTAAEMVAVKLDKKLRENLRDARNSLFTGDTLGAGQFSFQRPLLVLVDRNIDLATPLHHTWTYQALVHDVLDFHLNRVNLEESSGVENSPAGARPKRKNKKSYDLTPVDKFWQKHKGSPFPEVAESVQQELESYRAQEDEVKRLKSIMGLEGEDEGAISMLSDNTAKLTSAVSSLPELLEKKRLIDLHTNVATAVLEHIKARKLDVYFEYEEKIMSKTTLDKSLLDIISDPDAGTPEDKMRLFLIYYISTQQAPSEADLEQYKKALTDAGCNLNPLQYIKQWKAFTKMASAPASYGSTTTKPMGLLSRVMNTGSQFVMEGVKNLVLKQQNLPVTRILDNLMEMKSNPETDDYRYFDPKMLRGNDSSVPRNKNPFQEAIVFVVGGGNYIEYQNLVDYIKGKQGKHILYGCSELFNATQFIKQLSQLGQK
UniProt Q969E2: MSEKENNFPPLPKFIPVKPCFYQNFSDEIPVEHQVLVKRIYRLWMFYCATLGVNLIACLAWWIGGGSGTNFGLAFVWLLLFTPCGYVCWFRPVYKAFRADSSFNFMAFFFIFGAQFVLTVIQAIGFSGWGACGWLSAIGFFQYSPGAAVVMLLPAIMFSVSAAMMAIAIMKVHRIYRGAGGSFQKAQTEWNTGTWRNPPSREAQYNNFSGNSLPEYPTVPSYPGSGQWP
UniProt P55735: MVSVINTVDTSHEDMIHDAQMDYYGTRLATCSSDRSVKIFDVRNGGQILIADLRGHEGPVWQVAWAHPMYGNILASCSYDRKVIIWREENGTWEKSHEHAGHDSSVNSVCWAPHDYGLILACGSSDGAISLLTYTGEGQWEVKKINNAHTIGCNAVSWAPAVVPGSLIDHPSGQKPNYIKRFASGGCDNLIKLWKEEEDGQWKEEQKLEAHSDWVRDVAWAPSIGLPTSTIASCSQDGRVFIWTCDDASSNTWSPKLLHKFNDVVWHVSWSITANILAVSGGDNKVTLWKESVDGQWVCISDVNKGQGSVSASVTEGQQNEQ
UniProt Q15437: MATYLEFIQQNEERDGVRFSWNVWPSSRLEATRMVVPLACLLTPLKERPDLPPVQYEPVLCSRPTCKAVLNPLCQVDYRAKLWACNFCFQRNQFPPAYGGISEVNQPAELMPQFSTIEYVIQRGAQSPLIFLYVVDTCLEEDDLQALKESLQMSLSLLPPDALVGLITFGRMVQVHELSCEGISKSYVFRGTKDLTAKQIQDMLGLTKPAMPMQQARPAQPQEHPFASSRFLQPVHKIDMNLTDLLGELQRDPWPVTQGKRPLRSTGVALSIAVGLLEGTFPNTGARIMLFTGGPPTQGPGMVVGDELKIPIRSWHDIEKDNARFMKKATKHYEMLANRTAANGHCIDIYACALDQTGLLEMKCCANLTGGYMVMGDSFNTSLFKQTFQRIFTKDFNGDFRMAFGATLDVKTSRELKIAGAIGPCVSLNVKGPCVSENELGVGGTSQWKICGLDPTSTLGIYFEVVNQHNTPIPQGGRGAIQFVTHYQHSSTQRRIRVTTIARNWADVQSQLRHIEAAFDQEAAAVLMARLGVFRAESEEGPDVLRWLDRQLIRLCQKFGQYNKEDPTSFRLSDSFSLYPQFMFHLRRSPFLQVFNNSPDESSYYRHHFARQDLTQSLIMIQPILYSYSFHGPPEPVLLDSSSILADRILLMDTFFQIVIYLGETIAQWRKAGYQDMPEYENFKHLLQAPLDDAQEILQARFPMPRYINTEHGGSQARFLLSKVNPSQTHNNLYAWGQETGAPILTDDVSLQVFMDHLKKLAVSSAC
UniProt O00442: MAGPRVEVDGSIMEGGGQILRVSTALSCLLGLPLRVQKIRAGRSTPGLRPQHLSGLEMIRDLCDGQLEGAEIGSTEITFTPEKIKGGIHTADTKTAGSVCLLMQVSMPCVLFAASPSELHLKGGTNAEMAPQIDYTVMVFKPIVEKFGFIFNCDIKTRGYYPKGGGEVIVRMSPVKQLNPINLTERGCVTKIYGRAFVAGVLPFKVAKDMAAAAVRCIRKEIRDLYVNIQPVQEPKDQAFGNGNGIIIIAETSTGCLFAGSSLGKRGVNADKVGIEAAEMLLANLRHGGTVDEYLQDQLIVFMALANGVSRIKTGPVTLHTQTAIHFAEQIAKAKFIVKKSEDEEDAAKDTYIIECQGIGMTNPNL
UniProt Q5VUM1: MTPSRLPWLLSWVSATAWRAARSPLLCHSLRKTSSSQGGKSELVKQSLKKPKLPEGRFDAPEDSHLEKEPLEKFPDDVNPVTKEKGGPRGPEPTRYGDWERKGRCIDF
UniProt O00560: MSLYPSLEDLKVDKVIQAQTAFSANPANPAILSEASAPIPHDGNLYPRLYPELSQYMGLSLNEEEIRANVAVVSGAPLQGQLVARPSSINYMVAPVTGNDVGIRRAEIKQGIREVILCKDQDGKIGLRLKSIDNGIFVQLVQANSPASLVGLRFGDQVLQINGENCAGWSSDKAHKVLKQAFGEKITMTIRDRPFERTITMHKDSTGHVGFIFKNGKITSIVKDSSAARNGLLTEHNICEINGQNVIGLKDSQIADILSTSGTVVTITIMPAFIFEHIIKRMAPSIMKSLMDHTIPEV
UniProt P22307: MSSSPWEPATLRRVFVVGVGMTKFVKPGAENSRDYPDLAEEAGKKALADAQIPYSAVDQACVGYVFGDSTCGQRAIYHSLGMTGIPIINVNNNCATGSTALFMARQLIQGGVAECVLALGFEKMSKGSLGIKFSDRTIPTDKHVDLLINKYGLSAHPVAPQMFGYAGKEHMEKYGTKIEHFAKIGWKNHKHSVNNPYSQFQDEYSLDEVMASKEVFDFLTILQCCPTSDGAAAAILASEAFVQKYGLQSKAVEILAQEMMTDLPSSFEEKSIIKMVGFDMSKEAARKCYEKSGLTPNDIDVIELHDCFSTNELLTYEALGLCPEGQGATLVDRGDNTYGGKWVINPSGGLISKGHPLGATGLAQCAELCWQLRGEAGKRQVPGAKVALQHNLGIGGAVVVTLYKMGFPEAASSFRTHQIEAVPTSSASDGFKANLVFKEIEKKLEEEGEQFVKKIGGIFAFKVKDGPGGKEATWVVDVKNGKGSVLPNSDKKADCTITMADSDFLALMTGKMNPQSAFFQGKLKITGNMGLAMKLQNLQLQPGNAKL
UniProt Q5PRF9: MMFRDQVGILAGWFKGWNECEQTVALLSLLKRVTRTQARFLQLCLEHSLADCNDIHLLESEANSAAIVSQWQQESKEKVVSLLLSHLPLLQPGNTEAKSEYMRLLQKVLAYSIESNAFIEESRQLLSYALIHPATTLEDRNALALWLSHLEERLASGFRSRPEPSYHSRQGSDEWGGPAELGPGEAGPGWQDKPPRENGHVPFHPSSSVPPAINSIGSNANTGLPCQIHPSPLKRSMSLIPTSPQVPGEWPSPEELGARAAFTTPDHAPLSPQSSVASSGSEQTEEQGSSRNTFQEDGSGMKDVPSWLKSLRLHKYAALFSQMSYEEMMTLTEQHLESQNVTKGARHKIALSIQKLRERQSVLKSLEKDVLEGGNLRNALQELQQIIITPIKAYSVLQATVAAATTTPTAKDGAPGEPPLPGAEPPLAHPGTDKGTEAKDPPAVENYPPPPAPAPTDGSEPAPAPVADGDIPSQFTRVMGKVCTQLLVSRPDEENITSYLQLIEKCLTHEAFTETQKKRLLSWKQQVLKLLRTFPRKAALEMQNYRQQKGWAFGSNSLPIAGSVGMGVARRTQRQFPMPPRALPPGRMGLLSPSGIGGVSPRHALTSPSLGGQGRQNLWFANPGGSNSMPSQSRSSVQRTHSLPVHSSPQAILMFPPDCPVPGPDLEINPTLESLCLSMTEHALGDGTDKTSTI
UniProt Q9NQC3: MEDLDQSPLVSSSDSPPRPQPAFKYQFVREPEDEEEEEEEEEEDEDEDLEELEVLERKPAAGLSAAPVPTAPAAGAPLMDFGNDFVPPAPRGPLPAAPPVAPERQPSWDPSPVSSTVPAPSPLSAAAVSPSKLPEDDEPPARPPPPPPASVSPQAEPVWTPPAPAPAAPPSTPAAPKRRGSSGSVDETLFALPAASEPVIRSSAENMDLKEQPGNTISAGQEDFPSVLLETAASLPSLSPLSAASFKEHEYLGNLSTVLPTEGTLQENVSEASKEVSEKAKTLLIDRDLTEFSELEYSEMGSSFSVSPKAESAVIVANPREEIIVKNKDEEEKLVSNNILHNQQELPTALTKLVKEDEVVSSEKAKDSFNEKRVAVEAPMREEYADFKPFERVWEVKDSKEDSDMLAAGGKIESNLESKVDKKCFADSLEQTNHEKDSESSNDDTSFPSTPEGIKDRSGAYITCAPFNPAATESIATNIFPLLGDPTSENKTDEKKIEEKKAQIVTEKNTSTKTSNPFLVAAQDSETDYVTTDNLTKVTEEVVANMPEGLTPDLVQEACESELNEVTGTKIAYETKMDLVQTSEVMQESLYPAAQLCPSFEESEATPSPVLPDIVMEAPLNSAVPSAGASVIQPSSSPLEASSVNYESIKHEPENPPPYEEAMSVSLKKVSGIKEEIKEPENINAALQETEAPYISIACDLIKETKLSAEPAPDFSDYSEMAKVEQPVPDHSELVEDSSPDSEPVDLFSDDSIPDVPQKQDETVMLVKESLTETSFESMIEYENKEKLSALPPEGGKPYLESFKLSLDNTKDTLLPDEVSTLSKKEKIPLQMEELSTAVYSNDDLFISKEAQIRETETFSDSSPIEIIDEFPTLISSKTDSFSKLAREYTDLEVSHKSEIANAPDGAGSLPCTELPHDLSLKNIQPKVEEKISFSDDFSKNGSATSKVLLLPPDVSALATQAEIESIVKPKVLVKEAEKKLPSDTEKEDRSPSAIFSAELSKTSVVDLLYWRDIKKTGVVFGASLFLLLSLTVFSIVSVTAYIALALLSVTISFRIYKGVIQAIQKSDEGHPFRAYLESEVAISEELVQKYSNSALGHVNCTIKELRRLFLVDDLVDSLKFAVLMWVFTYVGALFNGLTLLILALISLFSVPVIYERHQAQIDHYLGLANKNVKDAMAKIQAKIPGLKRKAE
UniProt Q96EU6: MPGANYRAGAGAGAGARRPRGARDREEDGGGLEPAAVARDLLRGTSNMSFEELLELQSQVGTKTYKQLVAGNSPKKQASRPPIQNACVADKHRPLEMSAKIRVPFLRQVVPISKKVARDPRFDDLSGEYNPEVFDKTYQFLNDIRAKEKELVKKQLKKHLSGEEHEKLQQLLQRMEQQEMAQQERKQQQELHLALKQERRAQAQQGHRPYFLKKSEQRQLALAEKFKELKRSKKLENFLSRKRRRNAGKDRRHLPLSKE
UniProt Q9Y512: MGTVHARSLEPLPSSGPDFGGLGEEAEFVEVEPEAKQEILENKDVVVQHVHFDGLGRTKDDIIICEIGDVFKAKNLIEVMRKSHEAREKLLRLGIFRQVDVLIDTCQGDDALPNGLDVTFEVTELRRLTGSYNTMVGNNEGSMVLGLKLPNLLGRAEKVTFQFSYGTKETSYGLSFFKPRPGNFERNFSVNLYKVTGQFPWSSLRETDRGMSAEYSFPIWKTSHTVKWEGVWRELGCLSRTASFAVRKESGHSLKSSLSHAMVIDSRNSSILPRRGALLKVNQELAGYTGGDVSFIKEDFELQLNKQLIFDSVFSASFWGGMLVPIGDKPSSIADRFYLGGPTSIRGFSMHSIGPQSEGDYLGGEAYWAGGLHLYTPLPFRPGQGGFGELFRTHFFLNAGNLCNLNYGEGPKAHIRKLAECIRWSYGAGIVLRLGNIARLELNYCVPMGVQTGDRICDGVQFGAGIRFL
UniProt O95969: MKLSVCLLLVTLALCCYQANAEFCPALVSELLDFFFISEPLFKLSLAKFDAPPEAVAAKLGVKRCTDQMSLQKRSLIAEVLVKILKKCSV
UniProt O14521: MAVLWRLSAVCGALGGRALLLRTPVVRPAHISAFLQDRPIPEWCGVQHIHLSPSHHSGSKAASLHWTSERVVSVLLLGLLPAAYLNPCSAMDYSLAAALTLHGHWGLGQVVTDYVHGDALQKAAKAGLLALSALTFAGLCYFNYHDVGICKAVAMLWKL
UniProt Q6NW29: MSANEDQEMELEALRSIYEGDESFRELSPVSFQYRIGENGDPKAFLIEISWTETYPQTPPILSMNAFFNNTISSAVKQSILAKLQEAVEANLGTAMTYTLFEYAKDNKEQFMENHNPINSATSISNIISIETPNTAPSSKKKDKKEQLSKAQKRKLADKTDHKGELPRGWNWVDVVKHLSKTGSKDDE
UniProt Q13296: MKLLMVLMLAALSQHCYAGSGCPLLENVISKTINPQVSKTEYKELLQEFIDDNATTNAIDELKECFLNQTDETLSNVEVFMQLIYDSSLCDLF

Tests used:
Assay in all cases: log2 fold change, soluble protein after heating vs DMSO (PISA); higher = thermal stabilisation; K562 cells, 10 uM, 30 min; active = over 0.2 and 3.5 SD of the protein, either way, in both replicates (recomputed)
[1] = compound: CC1=C(C=C(C=C1)NC(=O)C2=CC(=CC=C2)C(C)(C)C#N)NC3=CC4=C(C=C3)N=CN(C4=O)C
Procedure, shortened: (§1)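 K562 cells at 2×10^6 cells/mL were given 10 μM compound for 30 min. Aliquots then went through 3 min of heating across 48°C-58°C, were pooled, and were extracted in PBS with 0.5% NP-40 at 4°C, and the supernatant after 21,000xg for 90 min was quantified by TMTpro 16plex LC-MS/MS with channel sums equalised. Thermal stability relative to control samples, from duplicates, is given as log2 fold change.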

[2] = compound: CC1=C(C=C(C=C1)NC(=O)C2=CC(=CC=C2)N(C)C)NC(=O)C3=CC=C(C=C3)O
Procedure, shortened: as §1

[3] = compound: CC1=CC=C(C=C1)SC2=C3C=C(SC3=CN=C2)C(=O)N
Procedure, shortened: as §1

[4] = compound: CC1=NC(=CC=C1)C2=C(N=C(N2)C(C)(C)C)C3=CC4=NC=CN=C4C=C3
Procedure, shortened: as §1

Nexturastat A = compound: CCCCN(Cc1ccc(C(=O)NO)cc1)C(=O)Nc1ccccc1 [Nexturastat A]
Procedure, shortened: as §1

vemurafenib = compound: CCCS(=O)(=O)Nc1ccc(F)c(C(=O)c2c[nH]c3ncc(-c4ccc(Cl)cc4)cc23)c1F [vemurafenib]
Procedure, shortened: as §1

[5] = compound: CCCS(=O)(=O)Nc1ccc(F)c(C(=O)c2c[nH]c3ncc(Cl)cc23)c1F
Procedure, shortened: as §1

[6] = compound: CCCc1cc(C)[nH]c(=O)c1CNC(=O)c1cc(-c2ccnc(N3CCN(C)CC3)c2)cc2c1cnn2C(C)C
Procedure, shortened: as §1

givinostat = compound: CCN(CC)Cc1ccc2cc(COC(=O)Nc3ccc(C(=O)NO)cc3)ccc2c1 [givinostat]
Procedure, shortened: as §1

barasertib = compound: CCN(CCCOc1ccc2c(Nc3cc(CC(=O)Nc4cccc(F)c4)[nH]n3)ncnc2c1)CCOP(=O)(O)O [barasertib]
Procedure, shortened: as §1

Measured: log2 fold change

SCFD1 (UniProt Q8WVM8)
inactive: [1] 0.052 | [2] -0.064 | [3] 0.011 | [4] 0.021 | Nexturastat A -0.013 | vemurafenib 0.042 | [5] 0.058 | [6] 0.042 | givinostat 0.032 | barasertib 0.032

RTF2 (UniProt Q9BY42)
inactive: [1] 0 | [2] -0.028 | [3] 0.019 | [4] 0.04 | Nexturastat A 0.004 | vemurafenib 0.129 | [5] 0.044 | [6] -0.019 | givinostat 0.017 | barasertib 0.072

SCAMP4 (UniProt Q969E2)
inactive: [1] -0.021 | [2] -0.001 | [3] 0.079 | [4] -0.057 | Nexturastat A -0.023 | vemurafenib -0.017 | [5] 0.016 | [6] -0.023 | givinostat 0.034 | barasertib 0.017

RTF1 (UniProt Q92541)
inactive: [1] 0.058 | [2] -0.028 | [3] 0 | [4] 0.016 | Nexturastat A -0.106 | vemurafenib 0.039 | [5] 0.033 | [6] -0.019 | givinostat -0.025 | barasertib 0.027

SEC13 isoform 3 (UniProt P55735)
inactive: [1] -0.026 | [2] -0.02 | [3] -0.011 | [4] 0.006 | Nexturastat A -0.072 | vemurafenib 0.019 | [5] 0.035 | [6] 0.057 | givinostat 0.003 | barasertib 0.024

RTN2 (UniProt O75298)
inactive: [1] 0.1 | [2] -0.026 | [3] 0.015 | [4] 0.067 | Nexturastat A -0.221 | vemurafenib -0.056 | [5] 0.043 | [6] -0.054 | givinostat 0.036 | barasertib 0.036

SCARB1 isoform 2 (UniProt Q8WTV0)
inactive: [1] 0.022 | [2] 0.032 | [3] 0.018 | [4] 0.026 | Nexturastat A -0.022 | vemurafenib 0.023 | [5] 0.015 | [6] -0.137 | givinostat -0.006 | barasertib -0.01

SEC23B (UniProt Q15437)
inactive: [1] 0.003 | [2] -0.028 | [3] 0.008 | [4] 0.04 | Nexturastat A 0.006 | vemurafenib 0.033 | [5] 0.033 | [6] 0.005 | givinostat 0.005 | barasertib 0.017

RTCA (UniProt O00442)
inactive: [1] -0.017 | [2] -0.004 | [3] 0.005 | [4] 0.015 | Nexturastat A 0 | vemurafenib -0.011 | [5] 0.02 | [6] -0.007 | givinostat 0.022 | barasertib 0.037

SDHAF4 (UniProt Q5VUM1)
inactive: [1] -0.066 | [3] 0.053 | [4] 0.022 | Nexturastat A -0.039 | [5] -0.065 | [6] -0.035 | barasertib -0.018
active: givinostat 0.368

SCNM1 (UniProt Q9BWG6)
inactive: [1] -0.102 | [2] 0.141 | [3] 0.029 | [4] -0.032 | Nexturastat A -0.178 | [5] 0.04 | [6] 0.039 | givinostat -0.004 | barasertib -0.14

SDCBP isoform 2 (UniProt O00560)
inactive: [1] 0.06 | [2] -0.058 | [3] 0.004 | Nexturastat A 0.149 | [5] 0.076 | [6] -0.048 | givinostat -0.008 | barasertib 0.046

SCP2 (UniProt P22307)
inactive: [1] -0.027 | [2] 0.005 | [3] -0.006 | [4] 0.028 | Nexturastat A -0.104 | vemurafenib 0.022 | [5] 0.012 | [6] -0.027 | givinostat -0.009 | barasertib -0.005

Taken from the listing (2 entries):
RTN2 (UniProt O75298)
inactive: [1] 0.1 | [2] -0.026 | [3] 0.015 | [4] 0.067 | Nexturastat A -0.221 | vemurafenib -0.056 | [5] 0.043 | [6] -0.054 | givinostat 0.036 | barasertib 0.036

SCARB1 isoform 2 (UniProt Q8WTV0)
inactive: [1] 0.022 | [2] 0.032 | [3] 0.018 | [4] 0.026 | Nexturastat A -0.022 | vemurafenib 0.023 | [5] 0.015 | [6] -0.137 | givinostat -0.006 | barasertib -0.01

Further results

SAMD4B (UniProt Q5PRF9)
inactive: [2] -0.02 | [3] 0 | [4] -0.054 | Nexturastat A 0.202 | [5] -0.132 | givinostat 0.201 | barasertib 0.157
active: [1] -0.501

SAP30 (UniProt O75446)
inactive: [1] -0.292 | [3] -0.078 | [4] -0.164 | Nexturastat A 0.025 | vemurafenib 0.04 | [5] -0.157 | [6] 0.037 | givinostat 0.019

SEC23IP (UniProt Q9Y6Y8)
inactive: [1] 0.016 | [2] 0.041 | [3] 0.041 | [4] 0.012 | Nexturastat A 0.022 | vemurafenib 0.051 | [5] 0.056 | [6] 0.024 | givinostat 0.047 | barasertib 0.016

S100A6 (UniProt P06703)
inactive: [1] 0.075 | [2] -0.146 | [3] 0.046 | [4] 0.013 | Nexturastat A -0.242 | [5] -0.071 | [6] -0.021 | givinostat -0.026 | barasertib 0.018

SDAD1 (UniProt Q9NVU7)
inactive: [1] -0.067 | [2] -0.016 | [4] -0.014 | Nexturastat A 0.309 | [6] -0.081 | barasertib 0.056

SCAMP2 (UniProt O15127)
inactive: [1] -0.032 | [2] -0.032 | [3] 0.046 | Nexturastat A -0.061 | vemurafenib 0.081 | [5] 0.043 | [6] 0.013 | givinostat -0.085 | barasertib -0.029

SAAL1 (UniProt Q96ER3)
inactive: [1] 0.004 | [2] -0.008 | [3] 0.006 | [4] 0.009 | Nexturastat A -0.078 | vemurafenib -0.017 | [5] 0.035 | [6] -0.014 | givinostat -0.059 | barasertib 0.046

RTN4 isoform 2 (UniProt Q9NQC3)
inactive: [1] 0.035 | [2] 0.044 | [3] -0.038 | [4] 0.038 | Nexturastat A -0.09 | vemurafenib 0.067 | [5] -0.026 | givinostat 0.017 | barasertib 0.038

SDR39U1 (UniProt Q9NRG7)
inactive: [1] 0.894 | [3] 0.532 | Nexturastat A -0.038 | vemurafenib 0.206 | [5] -0.153 | [6] 0.755 | givinostat 0.232 | barasertib -0.097

SEC24B isoform 3 (UniProt O95487)
inactive: [1] -0.063 | [2] -0.013 | [3] 0.015 | [4] 0.027 | Nexturastat A -0.059 | vemurafenib 0.054 | [5] 0.018 | [6] -0.009 | barasertib 0.046

RRP36 (UniProt Q96EU6)
inactive: [1] 0.001 | [2] -0.168 | [3] -0.045 | Nexturastat A 0.24 | vemurafenib -0.117 | [5] 0.002 | [6] 0.136 | givinostat 0 | barasertib -0.218

SAMM50 (UniProt Q9Y512)
inactive: [1] -0.019 | [2] 0.016 | [3] -0.009 | [4] 0.013 | Nexturastat A -0.055 | vemurafenib -0.012 | [5] -0.041 | [6] 0.011 | givinostat -0.029 | barasertib 0.002

SARAF (UniProt Q96BY9)
inactive: [1] -0.141 | [3] -0.111 | Nexturastat A 0.291 | vemurafenib -0.1 | [5] -0.072 | barasertib 0.224

SCGB1D2 (UniProt O95969)
inactive: [1] -0.116 | [2] -0.034 | [3] 0.269 | Nexturastat A -0.037 | vemurafenib -0.193 | [5] -0.343 | [6] 0.513 | givinostat 0.206 | barasertib 0.185

SDHD (UniProt O14521)
inactive: [1] 0.022 | [2] 0.019 | [3] 0.004 | Nexturastat A -0.015 | vemurafenib 0.047 | [5] 0.03 | [6] -0.082 | givinostat 0.099 | barasertib -0.013

RWDD4 (UniProt Q6NW29)
inactive: [1] -0.022 | [2] 0.011 | [3] 0.022 | [4] -0.035 | Nexturastat A 0.133 | vemurafenib -0.003 | [5] 0.05 | [6] 0.051 | givinostat 0.094 | barasertib 0.054

SCAF4 (UniProt O95104)
inactive: [1] 0.059 | [3] 0.004 | [4] -0.047 | Nexturastat A -0.035 | vemurafenib 0.013 | [5] 0.014 | [6] 0.073 | givinostat 0.116 | barasertib 0.028

SDHB, A0A087WWT1
inactive: [1] -0.088 | [2] -0.153 | [3] 0.076 | [4] 0.016 | Nexturastat A -0.04 | vemurafenib -0.017 | [5] -0.125 | [6] -0.318 | givinostat 0.102 | barasertib -0.036

SCGB2A2 (UniProt Q13296)
inactive: [1] 0.024 | [3] 0.211 | [4] -0.386 | Nexturastat A -0.22 | vemurafenib -0.232 | [5] -0.102 | [6] 0.351 | barasertib 0.103
